Hit rate of the full screen: of about 31,000 sequences, about 1,400 (4.5%) were called active.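 How the source made its calls: active means median seed-adjusted z-score above 1 or below -1; inactive means the rest.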 Some of the results follow.
assay: Novel Modifiers of Survival Motor Neuron (SMN) Protein: Gene Identification via Genome-wide siRNA Screen; details: HEK293T SMN2-luciferase reporter, siRNA knockdown, 72 h; actives lie on both sides;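 further: luminescence tracks full-length SMN protein made from the SMN2 reporter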
How it was run: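 Steps: spot 1 pmol siRNA, add Lipofectamine RNAiMax in serum-free DMEM, seed HEK293T SMN2–luciferase reporter cells; incubate 72 h at 37 °C; add ONE-Glo; normalize luminescence to control siRNA, log10, MAD. Candidates: |MAD| > 1.0.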

Row | Sequence | median seed-adjusted z-score
1 | CGAUAUAUGUGAUAUGCGUTT against ZNF740 | inactive: -0.914
2 | GAAGCAUGAUGGACAGGAUTT against ISOC1 | inactive: 0.104
3 | GAGUUUAACUACCUGGAGATT against SEMA6B | inactive: 0.311
4 | GGACCGGCCUUUUCGAAAATT against SNRNP35 | inactive: 0.172
5 | CCAUCUUCGGCAUCCAUAATT against SLC16A2 | inactive: -0.302
6 | ACAUUGUGAAGAUCGAAAATT against SLC14A2 | inactive: 0.00107
7 | GGACUGUUGGAAACUAUCATT against IKBKAP | inactive: -0.0316
8 | GCCUCAAAGUGUACAUCGATT against B3GNT8 | inactive: 0.236
9 | GAUUGGAAUUAUUGAUUGATT against VAMP7 | inactive: -0.00527
10 | GAAGUUCAUACUAAGCGUATT against TPR | active: -1.03
11 | CCAUUUCGCAAAGCUCAGATT against IFNAR1 | inactive: 0.0327
12 | AGAUGAUCCUGUCCAGUGATT against PRKD2 | inactive: 0.00493
13 | CAUGUACACCAUACAUAGATT against CHST3 | inactive: 0.319
14 | CAAGUCAGCUGGUUCGGUATT against IDE | inactive: -0.081
15 | CUACCAGAACUAUUACGAUTT against PSTPIP1 | inactive: -0.342
16 | UAACAACAGUGAGAGAGCATT against UQCRH | inactive: 0.458
17 | CGCUGCCUGUACCACCAUUTT against WFDC5 | inactive: 0
18 | CAUAUAUGUUUCUACGAAATT against PDK3 | inactive: 0.232
19 | GGCUGAUGUUGAUCUGCGATT against GRLF1 | inactive: 0.0307
20 | GCCUUUGACCUGUCAGUGUTT against ASMT | inactive: -0.322
21 | CAUCUGUUGAGUUGUAAAUTT against NDUFC1 | inactive: 0
22 | GGAUCCAAGCAUUCGAAUATT against SLC4A10 | inactive: 0.026

Row | Sequence | median seed-adjusted z-score
23 | CCAGACUGCUAGAACAAGATT against OXNAD1 | inactive: 0.36
24 | GGGUCACAGUGAAGCAUCUTT against RRBP1 | inactive: -0.254
25 | GACUGGUCCUGUUAAAGAATT against GATAD2B | inactive: 0.218
26 | GCAUCCGAGAUGUGACUAATT against DIS3 | inactive: 0.266
27 | GAAAACUACUUCAACUAAATT against PCDH17 | inactive: 0.451
28 | GACGAGAAGAUGUUAGUAATT against PKN2 | inactive: 0.383
29 | CAUCAAUCCUCAUCAAGGATT against SLC9A9 | inactive: 0.143
30 | GAGACCAAAUCAACAAUGATT against 3-Sep | inactive: 0.0683
31 | GCUCAAAGGUCUCACCUGCTT against SLC35A2 | active: 1.06
32 | GCGAUGUUCAGAUACUAGATT against ACADM | inactive: 0.127
33 | GAUUGAAGUUAACAAUGCATT against UBA6 | inactive: 0.0251
34 | GAAGCUAAUUUACCUUGUATT against UBE2F | inactive: 0
35 | CAUCGAAGCUAUUUCGAAATT against EFHA2 | inactive: 0.166
36 | CCAAAUUCAUUGCCCGCUATT against XAB2 | inactive: 0.0628
37 | CGCAAGUUGGUGAUCCUAATT against PPM2C | inactive: 0.518
38 | GGAUGUUAGGAUUCGAAAUTT against LIMCH1 | inactive: 0.125
39 | GCCGGCCUGUGAAAUAUGATT against MAP3K3 | inactive: -0.182
40 | AGAUUUGUUUUGGACUGUATT against PAFAH1B2 | inactive: 0.0991
41 | GCUACGGCGUGGACAAGAATT against RELB | active: 1.16
42 | GCACACCAUUUGCUUCCAATT against GPR182 | inactive: -0.136
43 | CUGCGAUGAUUGACACUGATT against MAP3K7IP1 | inactive: 0
44 | CUCUCUUCGUAGAUCAAGATT against SFRS7 | inactive: 0.44

Row | Sequence | median seed-adjusted z-score
45 | CAGUAUUGAGGACACCUAUTT against SLC4A2 | inactive: -0.539
46 | UGAUGGCUCUAAAAGAUACTT against ZNF251 | inactive: -0.851
47 | CGGUUGGAGUUGGAUGACATT against TRIB3 | inactive: 0.00635
48 | GGCUGAAUGUAUACAUGCATT against CCNE1 | inactive: -0.693
49 | GCAGGUCAGCAUCACCUAUTT against PRSS8 | inactive: -0.275
50 | UCAUCUACCUGAUGCGUAUTT against TAF6 | active: -1.36
51 | CGAUGAUCUGGACAUCUUUTT against SMAP1 | inactive: -0.201
52 | CUUCAGGACAGAAAAGUCATT against TXNRD2 | inactive: 0.459
53 | AGCCGACACUGGUUCUUCATT against PFAS | inactive: 0.0344
54 | UCAAGGGAGUGAUUCAGUATT against GALK1 | inactive: 0.315
55 | GCCCGAACCUGUAACUUGATT against DRG1 | inactive: 0.336
56 | CCUUAAAGGAGCAAUCAAATT against CDK7 | inactive: -0.524
57 | CCUGAGUUGAUACAAGUGATT against SLC1A5 | inactive: -0.104
58 | GAGCCUUAGGAAUACCCGATT against NCOA2 | inactive: 0.149
59 | GGCAUGACUUUGACAGACUTT against KCNJ12 | inactive: -0.641
60 | GAACUUCAGAGGACGAGGATT against HNRNPU | inactive: 0.431
61 | CAGCAGCAGUAUGCCUAUATT against OVOL2 | inactive: 0.654
62 | GGAUUUUCUAGUUACCUGUTT against RG9MTD3 | inactive: -0.174
63 | GCACGUACACCUUCUUAGATT against NDUFV3 | inactive: -0.086
64 | CUGCAUACAUCACAAAGAATT against SENP8 | inactive: 0
65 | GGCUUAUCUUGACCACAAUTT against TLR10 | inactive: -0.363
66 | ACAACGUGGUGUAUAAGCATT against GDF5 | inactive: -0.0507

Row | Sequence | median seed-adjusted z-score
67 | UGGUGUCAGUGGAUCGCUATT against GPR101 | inactive: -0.265
68 | CAUCCACUCUGGAACCGCUTT against ELA3A | inactive: -0.0465
69 | CAAGGGUUUUCUUACAAUATT against GNA13 | inactive: 0
70 | CGCUGAUGCUGGUCUUCAUTT against MC2R | inactive: 0
71 | AGUCCAGCCUUAUCAAUCATT against ZNF773 | inactive: 0.345
72 | GGAACAGAGAAGCAUCUAATT against DDX3Y | inactive: -0.149
73 | CGGAUUUGUUGCUAAAUGATT against PCDHB8 | active: 1.15
74 | CGCCUUAUACUUUACCAAATT against MGC16703 | inactive: 0.55
75 | CCAAGUCGAUGGAACAGUUTT against RASAL1 | inactive: -0.089
76 | CAAGUUAUCCUGACCCUAUTT against TNFSF10 | inactive: 0
77 | CGGCAGCUGAGAUUCGAAATT against CASP14 | inactive: 0.702
78 | CACUUAACUUUGUUGCGAATT against RNASEN | inactive: 0.524
79 | CGAUAAAGACGGAUUCUAATT against MATK | inactive: -0.754
80 | GCUGGGCCUUCAUCAAGUATT against GPR108 | inactive: 0.369
81 | GAAGGAUAUCAAAUCAAUUTT against TCF4 | inactive: 0.107
82 | CGCUGGUCUUUUGACGGCATT against RAB40B | inactive: -0.31
83 | AGGUUUUCAUAGACAAGCATT against CUGBP1 | inactive: 0.086
84 | CCCUGAUCCUAUAGCUAUUTT against ART4 | inactive: -0.0808
85 | GACAGAUUUUAUACGUUUATT against MTF2 | inactive: 0
86 | CGAGCAAGGUUAUGAACCATT against AFM | inactive: 0
87 | CCCAAGGAGUUAAUCCUAATT against C1D | inactive: 0.021
88 | GGACGACAAAAGAGUUGUATT against RAB10 | inactive: -0.319

Row | Sequence | median seed-adjusted z-score
89 | CUACAGAAAUACUAGAGGATT against TRIM74 | inactive: 0.0932
90 | ACGUGAUCGCGUCAGGACATT against ARL8A | inactive: -0.0844
91 | GGACAUCUCUUAGCCCAUATT against NFATC3 | inactive: -0.517
92 | CCCUAGCACCCAUUACUUUTT against ETFA | inactive: -0.0619
93 | GCACUAAAGCAAUCUUCAATT against CYP26A1 | inactive: 0.0569
94 | AGUCCUCUAUCAACCUCUUTT against RXFP3 | inactive: -0.0651
95 | GGAGUGAUAUCUUCCACUATT against SLC25A14 | inactive: 0.281
96 | GCCCGAAUGUUCGCUGAAATT against RAB25 | inactive: -0.04
97 | CCUGAUUUCCAUUCAGAAATT against ETV4 | inactive: -0.186
98 | CAACCUAUACUAACCUGAATT against TUBA1A | inactive: 0.284
99 | CGACGGUUCUUCAUCCUUUTT against MPRIP | inactive: 0.238
100 | CGUUCUCAGAGCUACCCUUTT against NRIP2 | inactive: 0.415
101 | GGACCCUAAUCAAACGAAUTT against PDE8A | inactive: 0.302
102 | CCAAUGAGGUAAAAACGGATT against MLL3 | inactive: -0.248
103 | AGCAGGAGUUUGACAAGAATT against GPKOW | inactive: -0.239
104 | ACAAAUCUCGCUGACCAUATT against MEIS2 | inactive: 0.475
105 | GGAUGUCCACCACAGUAAATT against KL | inactive: -0.267
106 | GCAAGUACCCAGUACGAGATT against NFASC | inactive: 0.594
107 | UGAGGAGUUUUACCAGAAATT against HS1BP3 | inactive: 0.418
108 | GCUUGUAGGUGAUACACCUTT against ROCK1 | inactive: -0.306

Numbers 86 through 108, quoted:
Row | Sequence | median seed-adjusted z-score
86 | CGAGCAAGGUUAUGAACCATT against AFM | inactive: 0
87 | CCCAAGGAGUUAAUCCUAATT against C1D | inactive: 0.021
88 | GGACGACAAAAGAGUUGUATT against RAB10 | inactive: -0.319
89 | CUACAGAAAUACUAGAGGATT against TRIM74 | inactive: 0.0932
90 | ACGUGAUCGCGUCAGGACATT against ARL8A | inactive: -0.0844
91 | GGACAUCUCUUAGCCCAUATT against NFATC3 | inactive: -0.517
92 | CCCUAGCACCCAUUACUUUTT against ETFA | inactive: -0.0619
93 | GCACUAAAGCAAUCUUCAATT against CYP26A1 | inactive: 0.0569
94 | AGUCCUCUAUCAACCUCUUTT against RXFP3 | inactive: -0.0651
95 | GGAGUGAUAUCUUCCACUATT against SLC25A14 | inactive: 0.281
96 | GCCCGAAUGUUCGCUGAAATT against RAB25 | inactive: -0.04
97 | CCUGAUUUCCAUUCAGAAATT against ETV4 | inactive: -0.186
98 | CAACCUAUACUAACCUGAATT against TUBA1A | inactive: 0.284
99 | CGACGGUUCUUCAUCCUUUTT against MPRIP | inactive: 0.238
100 | CGUUCUCAGAGCUACCCUUTT against NRIP2 | inactive: 0.415
101 | GGACCCUAAUCAAACGAAUTT against PDE8A | inactive: 0.302
102 | CCAAUGAGGUAAAAACGGATT against MLL3 | inactive: -0.248
103 | AGCAGGAGUUUGACAAGAATT against GPKOW | inactive: -0.239
104 | ACAAAUCUCGCUGACCAUATT against MEIS2 | inactive: 0.475
105 | GGAUGUCCACCACAGUAAATT against KL | inactive: -0.267
106 | GCAAGUACCCAGUACGAGATT against NFASC | inactive: 0.594
107 | UGAGGAGUUUUACCAGAAATT against HS1BP3 | inactive: 0.418
108 | GCUUGUAGGUGAUACACCUTT against ROCK1 | inactive: -0.306

From PubChem BioAssay AID1347426 (Functional Genomics Laboratory (NCATS/FGL), 2020)
